B1: sp|P15639|PUR9_ECOLI (protein, UniProt P15639 1-529, looked up)
Bifunctional purine …: MQQRRPVRRALLSVSDKAGIVEFAQALSARGVELLSTGGTARLLAEKGLPVTEVSDYTGFPEMMDGRVKTLHPKVHGGILGRRGQDDAIMEEHQIQPIDMVVVNLYPFAQTVAREGCSLEDAVENIDIGGPTMVRSAAKNHKDVAIVVKSSDYDAIIKEMDDNEGSLTLATRFDLAIKAFEHTAAYDSMIANYFGSMVPAYHGESKEAAGRFPRTLNLNFIKKLDMRYGENSHQQAAFYIEENVKEASVATATQVQGKALSYNNIADTDAALECVKEFAEPACVIVKHANPCGVAIGNSILDAYDRAYKTDPTSAFGGIIAFNRELDAETAQAIISRQFVEVIIAPSASEEALKITAAKQNVRVLTCGQWGERVPGLDFKRVNGGLLVQDRDLGMVGAEELRVVTKRQPSEQELRDALFCWKVAKFVKSNAIVYAKNNMTIGIGAGQMSRVYSAKIAGIKAADEGLEVKGSSMASDAFFPFRDGIDAAAAAGVTCVIQPGGSIRDDEVIAAADEHGIAMLFTDMRHFRH
B2: sp|P0A799|PGK_ECOLI (protein, UniProt P0A799 2-387, looked up)
Phosphoglycerate kinase: SVIKMTDLDLAGKRVFIRADLNVPVKDGKVTSDARIRASLPTIELALKQGAKVMVTSHLGRPTEGEYNEEFSLLPVVNYLKDKLSNPVRLVKDYLDGVDVAEGELVVLENVRFNKGEKKDDETLSKKYAALCDVFVMDAFGTAHRAQASTHGIGKFADVACAGPLLAAELDALGKALKEPARPMVAIVGGSKVSTKLTVLDSLSKIADQLIVGGGIANTFIAAQGHDVGKSLYEADLVDEAKRLLTTCNIPVPSDVRVATEFSETAPATLKSVNDVKADEQILDIGDASAQELAEILKNAKTILWNGPVGVFEFPNFRKGTEIVANAIADSEAFSIAGGGDTLAAIDLFGIADKISYISTGGGAFLEFVEGKVLPAVAMLEERAKK
B3: sp|P05042|FUMC_ECOLI (protein, UniProt P05042 1-467, looked up)
Fumarate hydratase class II: MNTVRSEKDSMGAIDVPADKLWGAQTQRSLEHFRISTEKMPTSLIHALALTKRAAAKVNEDLGLLSEEKASAIRQAADEVLAGQHDDEFPLAIWQTGSGTQSNMNMNEVLANRASELLGGVRGMERKVHPNDDVNKSQSSNDVFPTAMHVAALLALRKQLIPQLKTLTQTLNEKSRAFADIVKIGRTHLQDATPLTLGQEISGWVAMLEHNLKHIEYSLPHVAELALGGTAVGTGLNTHPEYARRVADELAVITCAPFVTAPNKFEALATCDALVQAHGALKGLAASLMKIANDVRWLASGPRCGIGEISIPENEPGSSIMPGKVNPTQCEALTMLCCQVMGNDVAINMGGASGNFELNVFRPMVIHNFLQSVRLLADGMESFNKHCAVGIEPNRERINQLLNESLMLVTALNTHIGYDKAAEIAKKAHKEGLTLKAAALALGYLSEAEFDSWVRPEQMVGSMKAGR
B4: sp|P0A763|NDK_ECOLI (protein, UniProt P0A763 2-143, looked up)
Nucleoside diphosphate kinase: AIERTFSIIKPNAVAKNVIGNIFARFEAAGFKIVGTKMLHLTVEQARGFYAEHDGKPFFDGLVEFMTSGPIVVSVLEGENAVQRHRDLLGATNPANALAGTLRADYADSLTENGTHGSDSVESAAREIAYFFGEGEVCPRTR
B5: sp|P0A8F0|UPP_ECOLI (protein, UniProt P0A8F0 1-208, looked up)
Uracil …: MKIVEVKHPLVKHKLGLMREQDISTKRFRELASEVGSLLTYEATADLETEKVTIEGWNGPVEIDQIKGKKITVVPILRAGLGMMDGVLENVPSARISVVGMYRNEETLEPVPYFQKLVSNIDERMALIVDPMLATGGSVIATIDLLKKAGCSSIKVLVLVAAPEGIAALEKAHPDVELYTASIDQGLNEHGYIIPGLGDAGDKIFGTK
B6: sp|P23847|DPPA_ECOLI (protein, UniProt P23847 29-535, looked up)
Dipeptide-binding protein: KTLVYCSEGSPEGFNPQLFTSGTTYDASSVPLYNRLVEFKIGTTEVIPGLAEKWEVSEDGKTYTFHLRKGVKWHDNKEFKPTRELNADDVVFSFDRQKNAQNPYHKVSGGSYEYFEGMGLPELISEVKKVDDNTVQFVLTRPEAPFLADLAMDFASILSKEYADAMMKAGTPEKLDLNPIGTGPFQLQQYQKDSRIRYKAFDGYWGTKPQIDTLVFSITPDASVRYAKLQKNECQVMPYPNPADIARMKQDKSINLMEMPGLNVGYLSYNVQKKPLDDVKVRQALTYAVNKDAIIKAVYQGAGVSAKNLIPPTMWGYNDDVQDYTYDPEKAKALLKEAGLEKGFSIDLWAMPVQRPYNPNARRMAEMIQADWAKVGVQAKIVTYEWGEYLKRAKDGEHQTVMMGWTGDNGDPDNFFATLFSCAASEQGSNYSKWCYKPFEDLIQPARATDDHNKRVELYKQAQVVMHDQAPALIIAHSTVFEPVRKEVKGYVVDPLGKHHFENVSIE
B7: sp|P69910|DCEB_ECOLI;sp|P69908|DCEA_ECOLI (protein, UniProt P69910 1-466; P69908 1-466, looked up)
Glutamate decarboxylase beta: MDKKQVTDLRSELLDSRFGAKSISTIAESKRFPLHEMRDDVAFQIINDELYLDGNARQNLATFCQTWDDENVHKLMDLSINKNWIDKEEYPQSAAIDLRCVNMVADLWHAPAPKNGQAVGTNTIGSSEACMLGGMAMKWRWRKRMEAAGKPTDKPNLVCGPVQICWHKFARYWDVELREIPMRPGQLFMDPKRMIEACDENTIGVVPTFGVTYTGNYEFPQPLHDALDKFQADTGIDIDMHIDAASGGFLAPFVAPDIVWDFRLPRVKSISASGHKFGLAPLGCGWVIWRDEEALPQELVFNVDYLGGQIGTFAINFSRPAGQVIAQYYEFLRLGREGYTKVQNASYQVAAYLADEIAKLGPYEFICTGRPDEGIPAVCFKLKDGEDPGYTLYDLSERLRLRGWQVPAFTLGGEATDIVVMRIMCRRGFEMDFAELLLEDYKASLKYLSDHPKLQGIAQQNSFKHT
Glutamate decarboxylase alpha: MDQKLLTDFRSELLDSRFGAKAISTIAESKRFPLHEMRDDVAFQIINDELYLDGNARQNLATFCQTWDDENVHKLMDLSINKNWIDKEEYPQSAAIDLRCVNMVADLWHAPAPKNGQAVGTNTIGSSEACMLGGMAMKWRWRKRMEAAGKPTDKPNLVCGPVQICWHKFARYWDVELREIPMRPGQLFMDPKRMIEACDENTIGVVPTFGVTYTGNYEFPQPLHDALDKFQADTGIDIDMHIDAASGGFLAPFVAPDIVWDFRLPRVKSISASGHKFGLAPLGCGWVIWRDEEALPQELVFNVDYLGGQIGTFAINFSRPAGQVIAQYYEFLRLGREGYTKVQNASYQVAAYLADEIAKLGPYEFICTGRPDEGIPAVCFKLKDGEDPGYTLYDLSERLRLRGWQVPAFTLGGEATDIVVMRIMCRRGFEMDFAELLLEDYKASLKYLSDHPKLQGIAQQNSFKHT
B8: sp|P0A8E1|YCFP_ECOLI (protein, UniProt P0A8E1 1-180, looked up)
UPF0227 protein YcfP: MIIYLHGFDSNSPGNHEKVLQLQFIDPDVRLISYSTRHPKHDMQHLLKEVDKMLQLNVDERPLICGVGLGGYWAERIGFLCDIRQVIFNPNLFPYENMEGKIDRPEEYADIATKCVTNFREKNRDRCLVILSRNDEALNSQRTSEELHHYYEIVWDEEQTHKFKNISPHLQRIKAFKTLG
B9: sp|P0ABE2|BOLA_ECOLI (protein, UniProt P0ABE2 1-105, looked up)
DNA-binding transcriptional …: MMIRERIEEKLRAAFQPVFLEVVDESYRHNVPAGSESHFKVVLVSDRFTGERFLNRHRMIYSTLAEELSTTVHALALHTYTIKEWEGLQDTVFASPPCRGAGSIA
B10: sp|P0A8E7|YAJQ_ECOLI (protein, UniProt P0A8E7 2-163, looked up)
Nucleotide-binding protein …: PSFDIVSEVDLQEARNAVDNASREVESRFDFRNVEASFELNDASKTIKVLSESDFQVNQLLDILRAKLLKRGIEGSSLDVPENIVHSGKTWFVEAKLKQGIESATQKKIVKMIKDSKLKVQAQIQGDEIRVTGKSRDDLQAVMAMVRGGDLGQPFQFKNFRD
B11: sp|P0AEZ9|MOAB_ECOLI (protein, UniProt P0AEZ9 2-170, looked up)
Molybdenum cofactor …: SQVSTEFIPTRIAILTVSNRRGEEDDTSGHYLRDSAQEAGHHVVDKAIVKENRYAIRAQVSAWIASDDVQVVLITGGTGLTEGDQAPEALLPLFDREVEGFGEVFRMLSFEEIGTSTLQSRAVAGVANKTLIFAMPGSTKACRTAWENIIAPQLDARTRPCNFHPHLKK
B12: sp|P0AET2|HDEB_ECOLI (protein, UniProt P0AET2 30-108, looked up)
Acid stress chaperone HdeB: ANESAKDMTCQEFIDLNPKAMTPVAWWMLHEETVYKGGDTVTLNETDLTQIPKVIEYCKKNPQKNLYTFKNQASNDLPN
B13: sp|P07013|PRIB_ECOLI (protein, UniProt P07013 2-104, looked up)
Replication restart protein …: TNRLVLSGTVCRAPLRKVSPSGIPHCQFVLEHRSVQEEAGFHRQAWCQMPVIVSGHENQAITHSITVGSRITVQGFISCHKAKNGLSKMVLHAEQIELIDSGD
B14: sp|P37773|MPL_ECOLI (protein, UniProt P37773 1-457, looked up)
UDP-N-acetylmuramate--L-alanyl …: MRIHILGICGTFMGGLAMLARQLGHEVTGSDANVYPPMSTLLEKQGIELIQGYDASQLEPQPDLVIIGNAMTRGNPCVEAVLEKNIPYMSGPQWLHDFVLRDRWVLAVAGTHGKTTTAGMATWILEQCGYKPGFVIGGVPGNFEVSAHLGESDFFVIEADEYDCAFFDKRSKFVHYCPRTLILNNLEFDHADIFDDLKAIQKQFHHLVRIVPGQGRIIWPENDINLKQTMAMGCWSEQELVGEQGHWQAKKLTTDASEWEVLLDGEKVGEVKWSLVGEHNMHNGLMAIAAARHVGVAPADAANALGSFINARRRLELRGEANGVTVYDDFAHHPTAILATLAALRGKVGGTARIIAVLEPRSNTMKMGICKDDLAPSLGRADEVFLLQPAHIPWQVAEVAEACVQPAHWSGDVDTLADMVVKTAQPGDHILVMSNGGFGGIHQKLLDGLAKKAEAAQ
B15: sp|P07004|PROA_ECOLI (protein, UniProt P07004 1-417, looked up)
Gamma-glutamyl phosphate …: MLEQMGIAAKQASYKLAQLSSREKNRVLEKIADELEAQSEIILNANAQDVADARANGLSEAMLDRLALTPARLKGIADDVRQVCNLADPVGQVIDGGVLDSGLRLERRRVPLGVIGVIYEARPNVTVDVASLCLKTGNAVILRGGKETCRTNAATVAVIQDALKSCGLPAGAVQAIDNPDRALVSEMLRMDKYIDMLIPRGGAGLHKLCREQSTIPVITGGIGVCHIYVDESVEIAEALKVIVNAKTQRPSTCNTVETLLVNKNIADSFLPALSKQMAESGVTLHADAAALAQLQAGPAKVVAVKAEEYDDEFLSLDLNVKIVSDLDDAIAHIREHGTQHSDAILTRDMRNAQRFVNEVDSSAVYVNASTRFTDGGQFGLGAEVAVSTQKLHARGPMGLEALTTYKWIGIGDYTIRA
B16: sp|P31142|THTM_ECOLI (protein, UniProt P31142 2-281, looked up)
3-mercaptopyruvate …: STTWFVGADWLAEHIDDPEIQIIDARMASPGQEDRNVAQEYLNGHIPGAVFFDIEALSDHTSPLPHMLPRPETFAVAMRELGVNQDKHLIVYDEGNLFSAPRAWWMLRTFGVEKVSILGGGLAGWQRDDLLLEEGAVELPEGEFNAAFNPEAVVKVTDVLLASHENTAQIIDARPAARFNAEVDEPRPGLRRGHIPGALNVPWTELVREGELKTTDELDAIFFGRGVSYDKPIIVSCGSGVTAAVVLLALATLDVPNVKLYDGAWSEWGARADLPVEPVK

Test system: E. coli K-12 proteome
Details: S-sulfhydrated protein pull-down, TMT LC-MS3; ΔdecR E. coli lysate

Compared with B1, B2 is higher in ΔdecR: 1.02 for the first, 1.29 for the second.

Going from B3 to B4, the ΔdecR falls from 2.03 to 1.28.

Compared with B5, B6 is higher in ΔdecR: 1.23 for the first, 1.35 for the second.

Going from B7 to B8, the ΔdecR falls from 1.29 to 0.97.

Compared with B9, B10 is higher in ΔdecR: 0.81 for the first, 1.60 for the second.

Compared with B11, B12 is lower in ΔdecR: 1.80 for the first, 1.53 for the second.

First: B13
Second: B14
The ΔdecR of the first is higher: 1.14 for the first, 1.00 for the second.

First: B15
Second: B16
The ΔdecR of the first is higher: 2.61 for the first, 1.76 for the second.
